# Data from paper PMC9452538 (Communications Biology, 2022).
# Assay: peptide made by a vendor
# Settings: whole synthesis
row,Substance,purity (crude or final not stated) [%]
1,LKKLCRILKKACRI-NH2 (cysteine pairing not given here),96.7
2,LKKACRILKKLCRI-NH2,96.46
3,LKKLCRI-NH2,96.69
4,PEPTIDE1{L.K.K.L.C.R.I.L.K.K.L.A.R.I.[am]}$$$$V2.0,96.66
5,LKALCRILKKLCRI-NH2,95.67
6,AKKLCRILKKLCRI-NH2,96.36
7,LKKLCRILAKLCRI-NH2,96.68
8,LKKLCRILKALCRI-NH2,95.14
9,LAKLCRILKKLCRI-NH2,99.65
10,LKKLCRIAKKLCRI-NH2,97.84
11,LKKLCRILKKLCAI-NH2,96.15

# HELM strings list residues between dots; [ac] is acetyl, [am] amide, other brackets name non-standard units. Ends that are not written are not given here.
